# Assay results taken from the supplement of paper PMC10338343.
# ± gives the standard deviation. The entries are a selection whose mix differs from that of the whole data set. The uncertainty is large for many entries. The list shows a part of the results.
# Columns and labels:
# [1] = tested on: MILI (PIWIL2) piRISC loaded with L1MC piRNA (26 nt); assay: pre-steady-state target cleavage rate (min^-1); higher = faster piRNA-guided slicing of the target; conditions: guide: L1MC piRNA 5'p-UAACUAAAUACUAUGCAAGCUGUAGG
# How it was run: (§1)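 With or without 500 nM GTSF1 partner protein, 1 nM active affinity-purified piRISC carrying one synthetic guide was mixed with 0.1 nM transcribed, DNA-blocked target RNA library in HEPES–potassium acetate buffer at 33 °C for 0–8 or 0–960 min. Uncleaved targets were sequenced and normalised to depth and to weakly complementary targets, three trials were pooled, and k3 was capped at 0.0001 min^-1. The pre-steady-state cleavage rate came from a burst-and-steady-state fit.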
# [2] = tested on: MIWI (PIWIL1) piRISC loaded with L1MC piRNA (30 nt); assay: as above; conditions: guide: L1MC piRNA 5'p-UAACUAAAUACUAUGCAAGCUGUAGGUCCU
# How it was run: as §1
# [3] = tested on: EfPiwi piRISC loaded with L1MC piRNA (26 nt); assay: pre-steady-state target cleavage rate (min^-1); guide: L1MC piRNA 5'p-UAACUAAAUACUAUGCAAGCUGUAGG; MIWI and MILI are mouse PIWI proteins and EfPiwi is from a freshwater sponge; tags in brackets are library labels; higher = faster piRNA-guided slicing of the target
# How it was run: as §1
# [4] = auxiliary factor: none (no GTSF1)
# [5] = auxiliary factor: 500 nM Ephydatia muelleri Gtsf1
# [6] = auxiliary factor: none (no Gtsf1)
# [7] = auxiliary factor: 500 nM mouse GTSF1
Sequence,"pre-steady-state target cleavage rate [1, 4]","pre-steady-state target cleavage rate [2, 4]","pre-steady-state target cleavage rate [3, 5]","pre-steady-state target cleavage rate [3, 6]","pre-steady-state target cleavage rate [1, 7]","pre-steady-state target cleavage rate [2, 7]"
UCCUGGUACACGUUGCAUAGUAUUUACAAA,0.000988 ± 0.0098,0.000584 ± 0.011,0.000402 ± 0.015,0.000417 ± 0.021,,
UCCUGGAUCAGCUUGCAUUGUAUUUACAAA,0.000332 ± 0.019,0.00148 ± 0.0054,0.00105 ± 0.0037,0.000285 ± 0.025,,
UCCUGCAACAGCUAGCAUAGUAUUUAGUUA,,0.0185 ± 0.004,0.0145 ± 0.004,0.000879 ± 0.0068,0.289 ± 0.02,1.12 ± 0.047
UCCUGGUACAGCUUGCAUAGUUAUUUCAAA,0.000896 ± 0.0072,0.000272 ± 0.0098,0.000661 ± 0.0059,0.000415 ± 0.022,,0.0036 ± 0.0059
UCCUGGUACAGCUUGCUAAGUAUUUUCAAA,0.0011 ± 0.0059,0.000877 ± 0.008,0.000463 ± 0.011,0.000821 ± 0.014,,
UCCUCCUACAGCUUGCUUAGUAUUUUCAAA,0.000975 ± 0.0048,0.00106 ± 0.0043,0.00322 ± 0.003,0.000574 ± 0.011,,
UCCUGGAUGUCGUUGCAUAGUAUGUAGUUA,0.00222 ± 0.0041,0.00155 ± 0.0046,0.000867 ± 0.0085,0.000325 ± 0.023,,0.000773 ± 0.01
UCCUGGAUCAGCUUGCUUAGUUUUUAGUUA,0.00306 ± 0.0033,0.0125 ± 0.0034,0.00518 ± 0.0042,0.000488 ± 0.016,,0.0882 ± 0.01
UCCUGGAACAGCUUGCAUAGUAAUAAGUUA,0.00188 ± 0.0036,0.00233 ± 0.0038,0.00229 ± 0.0024,0.000394 ± 0.019,,
UCCUGGAUGUCGAUGCAUAGUCAUUUAGUUA,0.00241 ± 0.0032,0.00272 ± 0.0039,0.000298 ± 0.011,< 0.0001,,0.00277 ± 0.0044
UCCUGCAACAGCUUGCAUAGAAUUUAGUUA,0.00148 ± 0.0047,0.0261 ± 0.0079,0.00434 ± 0.0021,0.00143 ± 0.0055,,0.492 ± 0.048
UCCUGGAUGAGCUACGAUAGUAUUUAGAAA,0.000106 ± 0.032,0.000742 ± 0.0072,0.000953 ± 0.0078,0.000485 ± 0.013,,0.00063 ± 0.015
UCCUGGAUGAGCUUGCUAUAGUAUUUAGUUA,0.00068 ± 0.0093,0.000992 ± 0.0065,0.00201 ± 0.003,0.00101 ± 0.0075,,0.00315 ± 0.0033
UCCUCCUACAGCUUGCAUAGUUAAUAGAAA,0.000854 ± 0.0069,0.00114 ± 0.0059,0.00366 ± 0.0031,0.000431 ± 0.0092,,0.0486 ± 0.014
UCCUGGUAGUCCUUGCAUAGUAUUUUCAAA,0.00283 ± 0.0035,0.00116 ± 0.0043,0.000464 ± 0.0086,0.000142 ± 0.061,,0.00197 ± 0.0056
UCCUGGAUCAGCUUGCAUAGUAUUAUCUAA,0.00184 ± 0.003,0.00284 ± 0.0032,0.00218 ± 0.0037,0.000203 ± 0.039,,
UCCUGGAUGAGCUUGCAUAGUUUUUACAAA,0.000802 ± 0.0084,0.000789 ± 0.0061,0.000688 ± 0.004,0.000299 ± 0.024,,0.00395 ± 0.0045
UCCUGGAUCAGCUUGCAUAGAUAUUACAAA,0.000474 ± 0.0086,0.000303 ± 0.0088,0.00117 ± 0.0093,0.000637 ± 0.016,,
UCCUGGAUGUCGUAGCAUAGUAUUUAGUAA,0.00189 ± 0.0043,0.000903 ± 0.0079,0.00106 ± 0.0074,0.000453 ± 0.014,,0.00174 ± 0.0058
UCCUGGAUGAGCUUGCAUAGUAUUAGUUA,0.000845 ± 0.011,0.00227 ± 0.0036,0.00121 ± 0.0031,0.000262 ± 0.02,,0.00334 ± 0.0036
UCCUGCUACAGCUUGCAUAGUUAAAUCAAA [g10:g25:cont:t1A],0.000844 ± 0.0078,0.000348 ± 0.012,0.00139 ± 0.0073,0.000178 ± 0.061,,

Sequence,"pre-steady-state target cleavage rate [1, 4]","pre-steady-state target cleavage rate [2, 4]","pre-steady-state target cleavage rate [3, 5]","pre-steady-state target cleavage rate [3, 6]","pre-steady-state target cleavage rate [1, 7]","pre-steady-state target cleavage rate [2, 7]"
UCCUGGAUCAGGAAGCAUAGUAUUUAGAAA,0.000747 ± 0.006,0.000469 ± 0.0066,0.00183 ± 0.0061,< 0.0001,,
UCCUGGAACACGAUGCAUAGUAUUUAGAAA,0.00159 ± 0.0039,0.00159 ± 0.0052,0.0019 ± 0.003,0.00015 ± 0.031,,0.00367 ± 0.0045
UCCUCCUACAGCUUGCAUUCUAUUUUCAAA,0.000467 ± 0.0095,0.000212 ± 0.015,0.000718 ± 0.0063,< 0.0001,,
UCCUGCUACAGCUUGCAUAGUUAUUAGAAA,0.000264 ± 0.012,0.00147 ± 0.0028,0.00309 ± 0.0025,0.00072 ± 0.0099,,
UCCUGGAUGUCCUUGCAAUCUAUUUAGUAA,0.000442 ± 0.011,0.000442 ± 0.013,0.000484 ± 0.01,0.000165 ± 0.036,,0.00231 ± 0.005
UCCUGGAUGAGCAAGCAUAGUAUUUAGAAA,0.00101 ± 0.007,0.0012 ± 0.0064,0.00202 ± 0.0024,0.000266 ± 0.028,,0.00263 ± 0.0056
UCCUGGAUGUGCUUGCAUAGUAUUAUGUAA,0.000518 ± 0.011,0.000969 ± 0.0084,0.00108 ± 0.0057,0.0002 ± 0.043,,0.00267 ± 0.0055
UCCUGGAUCAGCUUGCAUAGAUUUUACAAA,0.000971 ± 0.0059,0.000995 ± 0.0055,0.000671 ± 0.0054,0.000338 ± 0.021,,
UCCUGGAUCACGUUGCAUAGUAUUUACAAA,0.0017 ± 0.0042,0.00186 ± 0.0038,0.0017 ± 0.0063,0.000367 ± 0.021,,0.00232 ± 0.005
UCCUGGAUGAGCUUGCAUAGUAUUUAUUUA,0.002 ± 0.0046,0.025 ± 0.0077,0.00435 ± 0.0029,0.00133 ± 0.0082,,0.267 ± 0.055
UCCUGGAUGUCCUUGCAUAGAAUUUAGUAA,0.0011 ± 0.0039,0.00147 ± 0.0028,0.000395 ± 0.0065,0.000141 ± 0.033,,
UCCUGGUACAGCUUGCAUAGUAAAAAGUAA,0.00133 ± 0.0032,0.00151 ± 0.0037,0.00315 ± 0.0036,0.000255 ± 0.041,,0.109 ± 0.031
UCCUGGAACAGCUUGUAUAGUAUUUAGUUA,,0.0564 ± 0.012,0.0686 ± 0.013,0.00519 ± 0.0044,0.323 ± 0.017,1.37 ± 0.056
UCCUGGAUGAGCUUGCAUGAGUAUUUAGUUA,0.00109 ± 0.0051,0.000568 ± 0.0088,0.000583 ± 0.0073,0.000151 ± 0.033,,0.00111 ± 0.01
UCCUCCUACAGCUUGCAAAGUAUUUACAAA,0.00134 ± 0.0045,0.00344 ± 0.0031,0.00274 ± 0.0029,0.000112 ± 0.024,,0.267 ± 0.036
UCCUGGAACAGCUUGCAUAGUUUUAGUUA,0.00193 ± 0.0033,0.00148 ± 0.0042,0.00165 ± 0.0024,0.000185 ± 0.045,,0.00365 ± 0.0043
UCCUGGAUGUCGUUGCAUAGUGAUUUAGUUA,,0.00177 ± 0.0062,0.0012 ± 0.0085,0.000219 ± 0.039,0.003 ± 0.0046,0.000634 ± 0.016
UCCUGGAUGUCGAAGCAUAGUAUUUUGAUA,0.000248 ± 0.018,0.000392 ± 0.016,0.000248 ± 0.0091,< 0.0001,,
UCCUGGAUGUCGUUGCAUAGUAUUUAGCUA,0.00045 ± 0.013,0.00116 ± 0.0063,0.000503 ± 0.0084,< 0.0001,,0.00197 ± 0.0056
UCCUGCUACAGCUUCGUUAGUAUUUACAAA,0.000113 ± 0.024,0.000259 ± 0.027,0.000295 ± 0.01,0.000359 ± 0.015,,

# For reference, some entries already given:
Sequence,"pre-steady-state target cleavage rate [1, 4]","pre-steady-state target cleavage rate [2, 4]","pre-steady-state target cleavage rate [3, 5]","pre-steady-state target cleavage rate [3, 6]","pre-steady-state target cleavage rate [1, 7]","pre-steady-state target cleavage rate [2, 7]"
UCCUGGAUGUCCUUGCAAUCUAUUUAGUAA,0.000442 ± 0.011,0.000442 ± 0.013,0.000484 ± 0.01,0.000165 ± 0.036,,0.00231 ± 0.005
UCCUGGAUGAGCAAGCAUAGUAUUUAGAAA,0.00101 ± 0.007,0.0012 ± 0.0064,0.00202 ± 0.0024,0.000266 ± 0.028,,0.00263 ± 0.0056
UCCUGGAUGUGCUUGCAUAGUAUUAUGUAA,0.000518 ± 0.011,0.000969 ± 0.0084,0.00108 ± 0.0057,0.0002 ± 0.043,,0.00267 ± 0.0055
UCCUGGAUCAGCUUGCAUAGAUUUUACAAA,0.000971 ± 0.0059,0.000995 ± 0.0055,0.000671 ± 0.0054,0.000338 ± 0.021,,
UCCUGGAUCACGUUGCAUAGUAUUUACAAA,0.0017 ± 0.0042,0.00186 ± 0.0038,0.0017 ± 0.0063,0.000367 ± 0.021,,0.00232 ± 0.005
UCCUGGAUGAGCUUGCAUAGUAUUUAUUUA,0.002 ± 0.0046,0.025 ± 0.0077,0.00435 ± 0.0029,0.00133 ± 0.0082,,0.267 ± 0.055
UCCUGGAUGUCCUUGCAUAGAAUUUAGUAA,0.0011 ± 0.0039,0.00147 ± 0.0028,0.000395 ± 0.0065,0.000141 ± 0.033,,
UCCUGGUACAGCUUGCAUAGUAAAAAGUAA,0.00133 ± 0.0032,0.00151 ± 0.0037,0.00315 ± 0.0036,0.000255 ± 0.041,,0.109 ± 0.031
UCCUGGAACAGCUUGUAUAGUAUUUAGUUA,,0.0564 ± 0.012,0.0686 ± 0.013,0.00519 ± 0.0044,0.323 ± 0.017,1.37 ± 0.056
UCCUGGAUGAGCUUGCAUGAGUAUUUAGUUA,0.00109 ± 0.0051,0.000568 ± 0.0088,0.000583 ± 0.0073,0.000151 ± 0.033,,0.00111 ± 0.01
UCCUCCUACAGCUUGCAAAGUAUUUACAAA,0.00134 ± 0.0045,0.00344 ± 0.0031,0.00274 ± 0.0029,0.000112 ± 0.024,,0.267 ± 0.036
